Target: T1, β2 adrenergic receptors (Canis lupus familiaris, UniProt P54833)
T1 construct: Canine lung membranes (10 μg protein/100 ul) were incubated with ^125ICYP; from tissue; host or cells: mongrel dog lung membranes
Test: Beta-2 binding, 125iodocyanopindolol (ICYP), canine lung membranes
Set-up: species or system canine (mongrel dogs)
Settings: check for β1 sites

The chains behind the UniProt entries cited, without tags or fusion partners.
UniProt P54833, whole entry: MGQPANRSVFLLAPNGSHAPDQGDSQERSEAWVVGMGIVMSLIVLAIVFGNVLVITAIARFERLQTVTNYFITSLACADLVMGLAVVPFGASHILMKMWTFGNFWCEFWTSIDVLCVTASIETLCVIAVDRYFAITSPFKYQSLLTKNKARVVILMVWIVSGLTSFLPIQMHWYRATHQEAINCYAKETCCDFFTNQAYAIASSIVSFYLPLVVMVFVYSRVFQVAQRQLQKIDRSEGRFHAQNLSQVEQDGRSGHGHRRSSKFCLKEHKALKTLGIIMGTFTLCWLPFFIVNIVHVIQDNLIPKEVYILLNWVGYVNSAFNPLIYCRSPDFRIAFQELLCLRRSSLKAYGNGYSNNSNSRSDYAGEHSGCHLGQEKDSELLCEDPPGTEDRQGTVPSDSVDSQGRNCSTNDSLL

Q: With `CC(C)NCC(O)COc1ccc(CC(N)=O)cc1` (stereo not shown) [Atenolol, atenolol] as the molecule, how does the “displacement of ICYP from pulmonary membranes” value read?
A: largely ineffective in displacing ICYP

Source: patent US7232837B2, “Stereoisomers with high affinity for adrenergic receptors” (McNeil-PPC, Inc., priority 1999, dated 2007)
